Test results: patent US9328122B2, “7-substituted Hanfangichin B derivative, and preparation method and use thereof” (HANGZHOU BENSHENG PHARMACEUTICAL CO., LTD., priority 2012, dated 2016)
Some results were stated once for a whole list of compounds, not compound by compound.

Key:
[1] = tested on: NB4 (acute promyelocytic leukemia) cells; assay: MTT cell growth inhibition, leukemia cells; type: cell-based, human; settings: relative to fangchinoline, Table 1
Description: (§1) Leukemia cell lines: leukemia cell lines: K562adr (drug-resistant, chronic myeloid leukemia, CML), NB4 (acute promyelocytic leukemia, AML), Kasumi-1 (acute myeloid leukemia M2 type, AML-M2), Jurkat (acute lymphoblastic leukemia, ALL), all of which were donated by Cancer Research Institute of Zhejiang University, China; and H9 (acute lymphoblastic leukemia, ALL), which was purchased from China Center for Type Culture Collection.
(§2) Reagents: The standard sample of fangchinoline (FAN) was purchased from Ci Yuan Biotechnology Co., Ltd., Shaanxi, China; and the 7-substituted fangchinoline derivatives according to the present invention.
(§3) 6000 well-growing leukemia cells were obtained and inoculated into wells of a 96-well cell culture plate. The culture medium was a RPMI-1640 cell culture medium containing 10% fetal bovine serum. After adding the 7-substituted fangchinoline derivatives of different concentrations the next day and mixing uniformly, the plate was placed in a carbon dioxide cell incubator (5% CO2) at 37° C. and incubating for 72 hours. Then the viable cell concentration was determined by the MTT method.

[2] = tested on: MG-63 (osteosarcoma) cells; assay: MTT cell growth inhibition, solid tumor cells; type: cell-based, human; settings: relative to fangchinoline, Table 2
Description: (§4) Hep-2 (laryngeal carcinoma), A549 (human lung cancer), CaES-17 (esophageal cancer cell), PC-3 (prostate cancer), CNE (nasopharyngeal carcinoma cell) and SK-OV-3 (ovarian cancer cell), all of which were purchased from China Center For Type Culture Collection; RKO (human colon adenocarcinoma cell), MGC-803 (human gastric cancer cell), MG-63 (osteosarcoma), and U87-MG (malignant glioma cell), all of which were purchased from Fuxiang Bio-tech Co. Ltd., Shanghai, China; PANC-1 (pancreatic cancer), Becap37 (human breast cancer cell), Hela (human cervical cancer cell) and Hep G2 (human liver cancer cell), all of which were donated by Cancer Research Institute of Zhejiang University, China.
as §3, with “human solid tumor” for “leukemia”, “DMEM High Glucose” for “a RPMI-1640”, “serum. The plate was placed in a carbon dioxide cell incubator (5% CO2) at 37° C. and incubated for 24 hours.” for “serum.”, “added with” for “adding the”, “concentration” for “concentrations the next day”, “incubated” for “incubating”

[3] = tested on: Hep-2 (laryngeal carcinoma) cells; assay: MTT cell growth inhibition, solid tumor cells; type: cell-based, human; settings: relative to fangchinoline, Table 2
Description: as §4
as §3, with “human solid tumor” for “leukemia”, “DMEM High Glucose” for “a RPMI-1640”, “serum. The plate was placed in a carbon dioxide cell incubator (5% CO2) at 37° C. and incubated for 24 hours.” for “serum.”, “added with” for “adding the”, “concentration” for “concentrations the next day”, “incubated” for “incubating”

[4] = tested on: K562/ADR (K562adr, drug-resistant chronic myeloid leukemia) cells; assay: MTT cell growth inhibition, leukemia cells; type: cell-based, human; settings: relative to fangchinoline, Table 1
Description: as §1, §2, §3

[5] = tested on: U87-MG (malignant glioma) cells; assay: MTT cell growth inhibition, solid tumor cells; type: cell-based, human; settings: relative to fangchinoline, Table 2
Description: as §4
as §3, with “human solid tumor” for “leukemia”, “DMEM High Glucose” for “a RPMI-1640”, “serum. The plate was placed in a carbon dioxide cell incubator (5% CO2) at 37° C. and incubated for 24 hours.” for “serum.”, “added with” for “adding the”, “concentration” for “concentrations the next day”, “incubated” for “incubating”

[6] = tested on: MGC-803 (human gastric cancer) cells; assay: MTT cell growth inhibition, solid tumor cells; type: cell-based; settings: relative to fangchinoline, Table 2
Description: as §4
as §3, with “human solid tumor” for “leukemia”, “DMEM High Glucose” for “a RPMI-1640”, “serum. The plate was placed in a carbon dioxide cell incubator (5% CO2) at 37° C. and incubated for 24 hours.” for “serum.”, “added with” for “adding the”, “concentration” for “concentrations the next day”, “incubated” for “incubating”

Compound	anti-NB4 activity increase over fangchinoline [1]	anti-MG-63 activity increase over fangchinoline [2]	anti-Hep-2 activity increase over fangchinoline [3]	anti-K562adr activity increase over fangchinoline [4]	anti-U87-MG activity increase over fangchinoline [5]	anti-MGC-803 activity increase over fangchinoline [6]
COc1ccc2cc1Oc1ccc(cc1)C[C@H]1c3cc(c(OC)cc3CCN1C)Oc1c(OS(=O)(=O)c3ccccc3)c(OC)cc3c1[C@H](C2)N(C)CC3 [BS-FC-104]	more than 2 fold					
C=C(C)COc1c(OC)cc2c3c1Oc1cc4c(cc1OC)CCN(C)[C@H]4Cc1ccc(cc1)Oc1cc(ccc1OC)C[C@@H]3N(C)CC2 [BS-FC-221]		more than 2 fold				
COc1cc(OC)cc(C(=O)Oc2c(OC)cc3c4c2Oc2cc5c(cc2OC)CCN(C)[C@H]5Cc2ccc(cc2)Oc2cc(ccc2OC)C[C@@H]4N(C)CC3)c1 [BS-FC-311]	more than 2 fold		more than 2 fold			
COc1ccc2cc1Oc1ccc(cc1)C[C@H]1c3cc(c(OC)cc3CCN1C)Oc1c(OCC(O)CN3CCCCC3)c(OC)cc3c1[C@H](C2)N(C)CC3 (stereo partly shown) [BS-FC-403]		more than 2 fold	more than 2 fold	more than 7 fold	more than 1.5 fold	more than 2 fold
COc1ccc2cc1Oc1ccc(cc1)C[C@H]1c3cc(c(OC)cc3CCN1C)Oc1c(OCC(O)CNCC3CC3)c(OC)cc3c1[C@H](C2)N(C)CC3 (stereo partly shown) [BS-FC-405]			more than 2 fold		more than 1.5 fold	
C=CCN(C)CC(O)COc1c(OC)cc2c3c1Oc1cc4c(cc1OC)CCN(C)[C@H]4Cc1ccc(cc1)Oc1cc(ccc1OC)C[C@@H]3N(C)CC2 (stereo partly shown) [BS-FC-409]			more than 2 fold			
COc1ccc2cc1Oc1ccc(cc1)C[C@H]1c3cc(c(OC)cc3CCN1C)Oc1c(OCC(O)CN3CCCC(C)C3)c(OC)cc3c1[C@H](C2)N(C)CC3 (stereo partly shown) [BS-FC-410]	more than 2 fold			more than 7 fold	more than 1.5 fold	more than 2 fold
